Among the data in article PMC4216105 are binding values, retold here.

Test [1] addresses T1, SP-Flag-Testican-2 (human) (UniProt Q92563).
T1 sequence: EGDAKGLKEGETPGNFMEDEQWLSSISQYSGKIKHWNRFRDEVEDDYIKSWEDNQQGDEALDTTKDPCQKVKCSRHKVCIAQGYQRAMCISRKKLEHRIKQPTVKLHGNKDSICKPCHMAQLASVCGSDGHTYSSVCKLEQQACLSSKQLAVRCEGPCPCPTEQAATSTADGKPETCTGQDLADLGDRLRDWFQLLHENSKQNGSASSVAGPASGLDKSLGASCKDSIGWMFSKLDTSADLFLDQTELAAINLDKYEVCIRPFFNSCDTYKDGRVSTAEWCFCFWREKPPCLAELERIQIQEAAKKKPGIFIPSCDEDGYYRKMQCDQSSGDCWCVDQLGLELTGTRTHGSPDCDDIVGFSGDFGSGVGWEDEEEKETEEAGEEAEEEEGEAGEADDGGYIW
Put plainly: co-IP; extracellular binding assay: culture supernatants of separately transfected S2 cells collected after 48 h, 500 ug of protein from each mixed in different combinations, immunoprecipitated with anti-HA or anti-Flag.

For another test, the target named is T2, Wnt5a-HA (UniProt P41221).
T2 sequence: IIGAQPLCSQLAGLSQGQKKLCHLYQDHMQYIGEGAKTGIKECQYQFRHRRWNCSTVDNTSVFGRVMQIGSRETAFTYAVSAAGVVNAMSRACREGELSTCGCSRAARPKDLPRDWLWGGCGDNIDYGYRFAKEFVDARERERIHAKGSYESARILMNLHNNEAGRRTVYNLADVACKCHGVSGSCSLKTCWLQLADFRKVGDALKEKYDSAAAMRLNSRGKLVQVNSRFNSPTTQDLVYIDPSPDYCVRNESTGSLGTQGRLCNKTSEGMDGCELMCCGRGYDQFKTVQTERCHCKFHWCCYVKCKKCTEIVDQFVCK
The test is described as above.

These are yes or no findings as the source states them, for the method shown. In cells and extracts the contact can be indirect. Some entries that bind do so weakly or less than the wild type. Sequences can lack the tags named with a protein.

B1: Wnt5a-HA (protein, UniProt P41221 62-380)
chain: IIGAQPLCSQLAGLSQGQKKLCHLYQDHMQYIGEGAKTGIKECQYQFRHRRWNCSTVDNTSVFGRVMQIGSRETAFTYAVSAAGVVNAMSRACREGELSTCGCSRAARPKDLPRDWLWGGCGDNIDYGYRFAKEFVDARERERIHAKGSYESARILMNLHNNEAGRRTVYNLADVACKCHGVSGSCSLKTCWLQLADFRKVGDALKEKYDSAAAMRLNSRGKLVQVNSRFNSPTTQDLVYIDPSPDYCVRNESTGSLGTQGRLCNKTSEGMDGCELMCCGRGYDQFKTVQTERCHCKFHWCCYVKCKKCTEIVDQFVCK
As to B1, the binding entry in test [1] is “binds”.

B2: SP-Flag-Testican-2 (protein, UniProt Q92563 23-424)
chain: EGDAKGLKEGETPGNFMEDEQWLSSISQYSGKIKHWNRFRDEVEDDYIKSWEDNQQGDEALDTTKDPCQKVKCSRHKVCIAQGYQRAMCISRKKLEHRIKQPTVKLHGNKDSICKPCHMAQLASVCGSDGHTYSSVCKLEQQACLSSKQLAVRCEGPCPCPTEQAATSTADGKPETCTGQDLADLGDRLRDWFQLLHENSKQNGSASSVAGPASGLDKSLGASCKDSIGWMFSKLDTSADLFLDQTELAAINLDKYEVCIRPFFNSCDTYKDGRVSTAEWCFCFWREKPPCLAELERIQIQEAAKKKPGIFIPSCDEDGYYRKMQCDQSSGDCWCVDQLGLELTGTRTHGSPDCDDIVGFSGDFGSGVGWEDEEEKETEEAGEEAEEEEGEAGEADDGGYIW
B2: in the test with Wnt5a-HA, the binding entry is on record as “binds”.
